Measurements: patent US20190276511A1 (BIONTECH RNA PHARMACEUTICALS, published 2019)
Results are given in words; binding and its absence hold for the method and conditions named. Some entries that bind do so weakly or less than the wild type. For part of these data: Where a sequence is shown, tags or fusion partners need not be part of it.

Sequences of proteins named here, by UniProt entry; tags and fusion partners are left off. A change or cut given only in a name is not applied to a line headed by its entry.
UniProt P25942: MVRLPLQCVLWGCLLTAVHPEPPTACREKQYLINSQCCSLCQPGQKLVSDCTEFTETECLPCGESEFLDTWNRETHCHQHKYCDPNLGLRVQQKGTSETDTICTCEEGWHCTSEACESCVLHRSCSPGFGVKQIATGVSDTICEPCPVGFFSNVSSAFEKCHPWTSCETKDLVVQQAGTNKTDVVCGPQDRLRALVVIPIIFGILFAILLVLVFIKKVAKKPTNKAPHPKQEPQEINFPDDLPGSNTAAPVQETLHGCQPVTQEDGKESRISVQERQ

Key:
CD40 receptor on cells [1] = target: T1, CD40 receptor on cells (human, UniProt P25942 21-277); assay: flow cytometry, receptor on HT1080 cells, second receptor-Fc for detection
[2] = target: CD27 receptor on cells (human) (UniProt P26842); assay: as above
CD40-Fc [3] = target: T2, CD40-Fc (human, UniProt P25942 21-193); assay: ELISA, coated receptor-Fc
T2 construct: extracellular domain; hinge included for covalent assembly; also called CD40 receptor-Fc fusion protein; not shown: human Fc gamma 1 region including the hinge region

CD27-Fc [4] = target: T3, CD27-Fc (human, UniProt P26842 20-191); assay: ELISA, coated receptor-Fc
T3 construct: extracellular domain; hinge included for covalent assembly; also called CD27 receptor-Fc fusion protein; not shown: human Fc gamma 1 region including the hinge region
T3 sequence (looked up): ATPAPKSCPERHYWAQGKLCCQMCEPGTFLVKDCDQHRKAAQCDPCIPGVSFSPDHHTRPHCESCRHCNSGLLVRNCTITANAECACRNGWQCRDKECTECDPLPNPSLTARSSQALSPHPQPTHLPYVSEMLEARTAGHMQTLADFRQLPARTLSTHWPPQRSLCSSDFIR

CD40-Fc [5] = target: T2, CD40-Fc; assay: flow cytometry, soluble receptor-Fc (10 nM) on cell-bound scDuokine
CD27-Fc [6] = target: T3, CD27-Fc; assay: as above
CD40-Fc [7] = target: T2, CD40-Fc; assay: ELISA titration from 316 nM
CD27-Fc [8] = target: T3, CD27-Fc; assay: ELISA titration from 316 nM
CD40 receptor on cells [9] = target: T1, CD40 receptor on cells; assay: flow cytometry, HT1080 transfectants, 100 nM
[10] = target: CD27 receptor on cells (human) (UniProt P26842); assay: flow cytometry, HT1080 transfectants, 100 nM
CD40 receptor on cells [11] = target: T1, CD40 receptor on cells; assay: flow cytometry on human PBMC, 10 nM, FLAG detection
CD40 receptor on cells [12] = target: T1, CD40 receptor on cells; assay: flow cytometry on human PBMC, 10 nM, FLAG detection; CD40 on B cells
CD40-Fc [13] = target: T2, CD40-Fc; assay: ELISA, 100 nM, immobilized receptor-Fc
CD27-Fc [14] = target: T3, CD27-Fc; assay: ELISA, 100 nM, immobilized receptor-Fc
OX40 receptor on cells [15] = target: T4, OX40 receptor on cells (human, UniProt P43489 29-277); assay: flow cytometry, receptor on HT1080 cells, second receptor-Fc for detection
T4 sequence (looked up): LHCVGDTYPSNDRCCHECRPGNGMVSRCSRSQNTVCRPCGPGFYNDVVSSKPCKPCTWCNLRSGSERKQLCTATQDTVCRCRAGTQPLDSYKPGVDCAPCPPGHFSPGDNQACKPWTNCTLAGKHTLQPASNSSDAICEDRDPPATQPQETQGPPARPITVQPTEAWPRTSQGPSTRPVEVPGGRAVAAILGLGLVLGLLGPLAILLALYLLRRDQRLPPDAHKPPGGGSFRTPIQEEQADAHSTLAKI

OX40-Fc [16] = target: T5, OX40-Fc (human, UniProt P43489 29-214); assay: ELISA, coated receptor-Fc
T5 construct: extracellular domain; hinge included for covalent assembly; also called OX40 receptor-Fc fusion protein; not shown: human Fc gamma 1 region including the hinge region
T5 sequence (looked up): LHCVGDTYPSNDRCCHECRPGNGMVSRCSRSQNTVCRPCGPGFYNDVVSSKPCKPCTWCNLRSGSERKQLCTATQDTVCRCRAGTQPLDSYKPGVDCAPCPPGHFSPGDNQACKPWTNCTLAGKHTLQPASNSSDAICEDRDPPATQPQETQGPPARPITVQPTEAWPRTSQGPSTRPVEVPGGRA

OX40-Fc [17] = target: T5, OX40-Fc; assay: flow cytometry, soluble receptor-Fc (10 nM) on cell-bound scDuokine
OX40-Fc [18] = target: T5, OX40-Fc; assay: ELISA titration from 316 nM
OX40 receptor on cells [19] = target: T4, OX40 receptor on cells; assay: flow cytometry, HT1080 transfectants, 100 nM
[20] = target: CD27 receptor on cells (human) (UniProt P26842); assay: flow cytometry on human PBMC, 10 nM, FLAG detection; CD27 on T cells
OX40-Fc [21] = target: T5, OX40-Fc; assay: ELISA, 100 nM, immobilized receptor-Fc

Measured: binding

B1: scCD40L-scCD27L (ligand)
chain: GDQNPQIAAHVISEASSKTTSVLQWAEKGYYTMSNNLVTLENGKQLTVKRQGLYYIYAQVTFCSNREASSQAPFIASLCLKSPGRFERILLRAANTHSSAKPCGQQSIHLGGVFELQPGASVFVNVTDPSQVSHGTGFTSFGLLKLGGGSGGGGDQNPQIAAHVISEASSKTTSVLQWAEKGYYTMSNNLVTLENGKQLTVKRQGLYYIYAQVTFCSNREASSQAPFIASLCLKSPGRFERILLRAANTHSSAKPCGQQSIHLGGVFELQPGASVFVNVTDPSQVSHGTGFTSFGLLKLGGGSGGGGDQNPQIAAHVISEASSKTTSVLQWAEKGYYTMSNNLVTLENGKQLTVKRQGLYYIYAQVTFCSNREASSQAPFIASLCLKSPGRFERILLRAANTHSSAKPCGQQSIHLGGVFELQPGASVFVNVTDPSQVSHGTGFTSFGLLKLGGGGSGGGTGGGGSSLGWDVAELQLNHTGPQQDPRLYWQGGPALGRSFLHGPELDKGQLRIHRDGIYMVHIQVTLAICSSTTASRHHPTTLAVGICSPASRSISLLRLSFHQGCTIASQRLTPLARGDTLCTNLTGTLLPSRNTDETFFGVQWVRPGGGSGGGSLGWDVAELQLNHTGPQQDPRLYWQGGPALGRSFLHGPELDKGQLRIHRDGIYMVHIQVTLAICSSTTASRHHPTTLAVGICSPASRSISLLRLSFHQGCTIASQRLTPLARGDTLCTNLTGTLLPSRNTDETFFGVQWVRPGGGSGGGSLGWDVAELQLNHTGPQQDPRLYWQGGPALGRSFLHGPELDKGQLRIHRDGIYMVHIQVTLAICSSTTASRHHPTTLAVGICSPASRSISLLRLSFHQGCTIASQRLTPLARGDTLCTNLTGTLLPSRNTDETFFGVQWVRP
notes: scDuokine from HEK293, FLAG-purified; VH leader left out; also called single-chain Duokine scCD40L-scCD27L; not shown: N-terminal FLAG tag
not listed: OX40 receptor on cells [15] | OX40-Fc [16] | OX40-Fc [17] | OX40-Fc [18] | OX40 receptor on cells [19] | [20] | OX40-Fc [21]
binds: all other assays above

B2: scOX40L-scCD27L (ligand)
chain: QVSHRYPRIQSIKVQFTEYKKEKGFILTSQKEDEIMKVQNNSVIINCDGFYLISLKGYFSQEVNISLHYQKDEEPLFQLKKVRSVNSLMVASLTYKDKVYLNVTTDNTSLDDFHVNGGELILIHQNPGEFCVLGGGSGGGQVSHRYPRIQSIKVQFTEYKKEKGFILTSQKEDEIMKVQNNSVIINCDGFYLISLKGYFSQEVNISLHYQKDEEPLFQLKKVRSVNSLMVASLTYKDKVYLNVTTDNTSLDDFHVNGGELILIHQNPGEFCVLGGGSGGGQVSHRYPRIQSIKVQFTEYKKEKGFILTSQKEDEIMKVQNNSVIINCDGFYLISLKGYFSQEVNISLHYQKDEEPLFQLKKVRSVNSLMVASLTYKDKVYLNVTTDNTSLDDFHVNGGELILIHQNPGEFCVLGGGGSGGGTGGGGSSLGWDVAELQLNHTGPQQDPRLYWQGGPALGRSFLHGPELDKGQLRIHRDGIYMVHIQVTLAICSSTTASRHHPTTLAVGICSPASRSISLLRLSFHQGCTIASQRLTPLARGDTLCTNLTGTLLPSRNTDETFFGVQWVRPGGGSGGGSLGWDVAELQLNHTGPQQDPRLYWQGGPALGRSFLHGPELDKGQLRIHRDGIYMVHIQVTLAICSSTTASRHHPTTLAVGICSPASRSISLLRLSFHQGCTIASQRLTPLARGDTLCTNLTGTLLPSRNTDETFFGVQWVRPGGGSGGGSLGWDVAELQLNHTGPQQDPRLYWQGGPALGRSFLHGPELDKGQLRIHRDGIYMVHIQVTLAICSSTTASRHHPTTLAVGICSPASRSISLLRLSFHQGCTIASQRLTPLARGDTLCTNLTGTLLPSRNTDETFFGVQWVRP
notes: scDuokine from HEK293, FLAG-purified; VH leader left out; also called single-chain Duokine scOX40L-scCD27L; not shown: N-terminal FLAG tag
not listed: CD40 receptor on cells [1] | CD40-Fc [3] | CD40-Fc [5] | CD40-Fc [7] | CD40 receptor on cells [9] | CD40 receptor on cells [11] | CD40 receptor on cells [12] | CD40-Fc [13]
binds: all other assays above
